Experimental data taken from paper PMC3316573.
Results are given in words; binding and its absence hold for the method and conditions named. Binding seen in cells or lysates may run through a third protein. Some binding calls cover weakened binding; strength is not graded here.

Target: HIF-1α (human (endogenous in Hep3B)), Q16665
Test: co-IP; endogenous proteins; cytoplasmic fraction (1250 µg) of Hep3B cells treated with 125 µM DMOG for 5 hours; antibody against SIRT1 or HIF-1α or control IgG1 overnight at 4°C, Protein G magnetic microbeads; Western blot
Settings: remark: other sources report otherwise

- binding: binds
B1: SIRT1, Q96EB6-1 1-747 (protein)
chain: MADEAALALQPGGSPSAAGADREAASSPAGEPLRKRPRRDGPGLERSPGEPGGAAPEREVPAAARGCPGAAAAALWREAEAEAAAAGGEQEAQATAAAGEGDNGPGLQGPSREPPLADNLYDEDDDDEGEEEEEAAAAAIGYRDNLLFGDEIITNGFHSCESDEEDRASHASSSDWTPRPRIGPYTFVQQHLMIGTDPRTILKDLLPETIPPPELDDMTLWQIVINILSEPPKRKKRKDINTIEDAVKLLQECKKIIVLTGAGVSVSCGIPDFRSRDGIYARLAVDFPDLPDPQAMFDIEYFRKDPRPFFKFAKEIYPGQFQPSLCHKFIALSDKEGKLLRNYTQNIDTLEQVAGIQRIIQCHGSFATASCLICKYKVDCEAVRGDIFNQVVPRCPRCPADEPLAIMKPEIVFFGENLPEQFHRAMKYDKDEVDLLIVIGSSLKVRPVALIPSSIPHEVPQILINREPLPHLHFDVELLGDCDVIINELCHRLGGEYAKLCCNPVKLSEITEKPPRTQKELAYLSELPPTPLHVSEDSSSPERTSPPDSSVIVTLLDQAAKSNDDLDVSESKGCMEEKPQEVQTSRNVESIAEQMENPDLKNVGSSTGEKNERTSVAGTVRKCWPNRVAKEQISRRLDGNQYLFLPPNRYIFHGAEVYSDSEDDVLSSSSCGSNSDSGTCQSPSLEEPMEDESEIEEFYNGLEDEPDVPERAGGAGFGTDGDDQEAINEAISVKQEVTDMNYPSNKS
